The values below come from the supplement of paper PMC10735217.

This test concerns HEK293A TEAD-LUC reporter. The test is described as follows: TEAD-luciferase reporter activity (YAP activation), robust Z score vs plate; higher = stronger YAP/TEAD activation. The conditions noted are these: 24 h. On the technique in general: Reporter assays use an easily measured gene product as a stand-in for the process of interest.

Where a name gives a salt, the structure may show the parent alone. Some of the results follow. Single values are uncertain here, since repeats match poorly.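 The human kidney-derived cells carry a stably integrated construct of eight TEAD-binding elements driving luciferase, read by luminescence in a drug-repurposing library screen. A compound counts as a hit when its signal is more than five robust Z scores above the plate mean.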

As for `O=C(O)CSC(SCC(=O)O)SCC(=O)O` [Ritiometan], the TEAD-luciferase reporter activity (compound concentration: 200 nM) is inactive: 0.512, the TEAD-luciferase reporter activity (compound concentration: 2 uM) was inactive: 0.875 and the TEAD-luciferase reporter activity (compound concentration: 10 uM) was inactive: 1.06.

`Cc1ccc(F)cc1Cn1c(N2CCCC(C)(N)C2)cc2c1c(=O)n(C)c(=O)n2C` (stereo not given): the TEAD-luciferase reporter activity is inactive: 0.392 (compound concentration: 200 nM), inactive: -0.91 (compound concentration: 2 uM) and inactive: 3.34 (compound concentration: 10 uM).

With `CC(C(=O)O)c1ccc(C(=O)c2ccccc2)s1` (stereo not given), the TEAD-luciferase reporter activity is inactive: -0.191 (compound concentration: 200 nM) and inactive: 0.668 (compound concentration: 10 uM).

Turning to `CC(C(=O)O)c1ccc(C(=O)c2ccccc2)s1` (stereo not given) [tiaprofenic acid], the TEAD-luciferase reporter activity (compound concentration: 2 uM) was inactive: -0.995.

Take `CC(=O)O[C@H]1C[C@@H]2CC[C@@H]3[C@H](CC[C@@]4(C)[C@H]3C[C@H](N3CC[N+](C)(C)CC3)[C@@H]4OC(C)=O)[C@@]2(C)C[C@@H]1N1CC[N+](C)(C)CC1` [pipecuronium bromide]: the TEAD-luciferase reporter activity (compound concentration: 200 nM) was inactive: -1.29 and the TEAD-luciferase reporter activity (compound concentration: 10 uM) was inactive: -0.132.

Regarding `COc1cc2c3cc1Oc1cc(ccc1O)C[C@@H]1c4c(cc(OC)c(O)c4Oc4ccc(cc4)C[C@@H]3N(C)CC2)CC[N+]1(C)C`, the TEAD-luciferase reporter activity is, setting by setting: (compound concentration: 200 nM) inactive: -0.0565; (compound concentration: 2 uM) inactive: 0.941; (compound concentration: 10 uM) active: 7.29.

Regarding `COc1ccccc1N1CCN(CCCC(=O)c2ccc(F)cc2)CC1` [Fluanisone], the TEAD-luciferase reporter activity (compound concentration: 200 nM) was inactive: 0.463 and the TEAD-luciferase reporter activity (compound concentration: 10 uM) was inactive: -0.879.

On to `COc1ccccc1N1CCN(CCCC(=O)c2ccc(F)cc2)CC1`, for which the TEAD-luciferase reporter activity (compound concentration: 2 uM) is inactive: -1.41.

Turning to `CN(C)CCN1C(=O)c2cccc3cc([N+](=O)[O-])cc(c23)C1=O` [Mitonafide], the TEAD-luciferase reporter activity is, setting by setting: (compound concentration: 200 nM) inactive: -1.01; (compound concentration: 2 uM) inactive: 3.35; (compound concentration: 10 uM) inactive: 1.78.

Regarding `CC(=O)Nc1ccc([C@H](C)C(=O)Nc2ncc(C(C)C)s2)cc1`, the TEAD-luciferase reporter activity was inactive: -0.254 (compound concentration: 200 nM), inactive: -1.48 (compound concentration: 2 uM) and inactive: 0.5 (compound concentration: 10 uM).

For the compound `CO[C@@]1(NC(=O)CSC(F)F)C(=O)N2C(C(=O)O)=C(CSc3nnnn3CCO)CO[C@@H]21` [flomoxef], the TEAD-luciferase reporter activity (compound concentration: 200 nM) is inactive: 0.578, the TEAD-luciferase reporter activity (compound concentration: 2 uM) is inactive: -1.06 and the TEAD-luciferase reporter activity (compound concentration: 10 uM) was inactive: -1.41.

Take `CCCCCCCCCCCC(=O)OCC(O)CO` (stereo not given) [Glycerol monolaurate]: the TEAD-luciferase reporter activity reads like this: (compound concentration: 200 nM) inactive: 0.941; (compound concentration: 2 uM) inactive: -0.592; (compound concentration: 10 uM) inactive: 0.671.

With `N#CNC(=N)NCCCCCCNC(=N)NC(=N)NCCCCCCN`, the TEAD-luciferase reporter activity reads like this: (compound concentration: 200 nM) inactive: -1.37; (compound concentration: 2 uM) inactive: 0.604; (compound concentration: 10 uM) inactive: 0.533.

As for `CC(CN1c2ccccc2Sc2ccc(S(=O)(=O)N(C)C)cc21)N(C)C` (stereo not given), the TEAD-luciferase reporter activity runs as follows: (compound concentration: 200 nM) inactive: 0.41; (compound concentration: 2 uM) inactive: 0.525; (compound concentration: 10 uM) inactive: 1.78.

For `CCN(c1nc(C)cc(N2CC=C(c3cccc(F)c3)CC2)n1)c1ccc(C(C)C)cc1Br`, the TEAD-luciferase reporter activity by setting is: (compound concentration: 200 nM) inactive: 0.313; (compound concentration: 2 uM) inactive: 1.29; (compound concentration: 10 uM) inactive: 1.9.

For `C[C@H](NC(=O)CNC(=O)C1CCCCC1)C(=O)N[C@H](Cc1c[nH]c2ccccc12)C(=O)N[C@@H](Cc1ccccc1)C(=O)N(C)C`, the TEAD-luciferase reporter activity by setting is: (compound concentration: 200 nM) inactive: -1.96; (compound concentration: 2 uM) inactive: 4.34; (compound concentration: 10 uM) inactive: -0.0828.

Turning to `Cc1ccc(CN2CCCC23Cc2ccccc2CNC3=O)cc1C` (stereo not given), the TEAD-luciferase reporter activity was inactive: -0.745 (compound concentration: 200 nM) and inactive: -0.538 (compound concentration: 10 uM).

On to `CC(C)c1cc2c(cc1S(=O)(=O)O)[C@@]1(C)CCC[C@@](C)(C(=O)O)[C@@H]1CC2` [ecabet, Tanabe AAI], for which the TEAD-luciferase reporter activity is, setting by setting: (compound concentration: 200 nM) inactive: -0.656; (compound concentration: 2 uM) inactive: -0.499; (compound concentration: 10 uM) inactive: 1.33.

Take `CCCCCCCC(=O)CC[C@@H]1[C@@H](C/C=C\CCCC(=O)O)[C@@H](O)C[C@H]1O` [Unoprostone]: the TEAD-luciferase reporter activity reads like this: (compound concentration: 200 nM) inactive: 0.662; (compound concentration: 2 uM) inactive: -0.32; (compound concentration: 10 uM) inactive: 1.48.

In the case of `CC(C(=O)O)c1ccc(C2CCC/C(=N\O)C2)cc1` (stereo not given) [Ximoprofen], the TEAD-luciferase reporter activity is, setting by setting: (compound concentration: 200 nM) inactive: -0.674; (compound concentration: 2 uM) inactive: -0.276; (compound concentration: 10 uM) inactive: 0.626.

For the compound `Oc1c(Br)cc(Br)c2cccnc12`, the TEAD-luciferase reporter activity was inactive: 4.34 (compound concentration: 200 nM), inactive: -0.461 (compound concentration: 2 uM) and inactive: -0.549 (compound concentration: 10 uM).

Take `Nc1ccc(O)c(C(=O)O)c1` [mesalamine, Lupin]: the TEAD-luciferase reporter activity (compound concentration: 2 uM) is inactive: -2.12.

In the case of `Nc1ccc(O)c(C(=O)O)c1` [5-Amino-2-hydroxy-benzoic acid89-57-6], the TEAD-luciferase reporter activity is inactive: -0.722 (compound concentration: 200 nM) and inactive: -1.05 (compound concentration: 10 uM).

In the case of `CC1CCC(C(=O)N(c2cc(-c3ccccc3)sc2C(=O)O)[C@H]2CC[C@H](O)CC2)CC1` (stereo not given in full), the TEAD-luciferase reporter activity runs as follows: (compound concentration: 200 nM) inactive: -0.595; (compound concentration: 2 uM) inactive: 0.594; (compound concentration: 10 uM) inactive: 0.496.

On to `Cc1c(C(=O)NN2CCCCC2)nn(-c2ccc(Cl)cc2Cl)c1-c1ccc(I)cc1`, for which the TEAD-luciferase reporter activity (compound concentration: 200 nM) is inactive: 0.221, the TEAD-luciferase reporter activity (compound concentration: 2 uM) was inactive: 0.555 and the TEAD-luciferase reporter activity (compound concentration: 10 uM) was inactive: 2.29.

As for `CC[C@]1(C)NC(=O)[C@H](Cc2cccs2)NC(=O)[C@@H](Cc2ccccc2)NC(=O)CCCSCC(C(=O)N2C[C@H](O)C[C@H]2C(=O)N[C@H](CCCNC(=N)N)C(=O)NCC(N)=O)NC(=O)[C@H](CC(N)=O)NC1=O` (stereo not given in full), the TEAD-luciferase reporter activity by setting is: (compound concentration: 200 nM) inactive: 0.824; (compound concentration: 2 uM) inactive: 0.837; (compound concentration: 10 uM) inactive: -1.24.

As to `CN(C)CCCn1cc(-c2ccccc2)c(-c2ccccc2)n1` [Fezolamine fumarate], the TEAD-luciferase reporter activity (compound concentration: 200 nM) was inactive: -0.195, the TEAD-luciferase reporter activity (compound concentration: 2 uM) is inactive: 0.764 and the TEAD-luciferase reporter activity (compound concentration: 10 uM) is active: 9.05.

Turning to `O=C1C[C@@H]2CCN(C(=O)C3CCCC3)C[C@@H]2CCN1`, the TEAD-luciferase reporter activity was inactive: -0.368 (compound concentration: 200 nM) and inactive: 3.51 (compound concentration: 10 uM).

Regarding `CN1[C@@H]2CC[C@H]1C[C@@H](NC(=O)c1cn(C3CCCCC3)c3ccccc3c1=O)C2`, the TEAD-luciferase reporter activity was inactive: 0.0524 (compound concentration: 200 nM), inactive: -1.16 (compound concentration: 2 uM) and inactive: 1.41 (compound concentration: 10 uM).
